PubChem BioAssay AID1159584, Peter MacCallum Cancer Centre, 2016
Aim: 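Knock-downs that harm CDH1-null cells more than parental MCF10A cells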 (primary screen). System: human MCF10A breast epithelial cells, parental and CDH1-null. Reagents: siRNA against human genes. Detection: 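Cell viability by CellTiter-Glo ATP luminescence, each line scaled to the mean of mock wells across plates, then CDH1-null over parental ratio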. Reading the numbers: CDH1-null / parental viability ratio: higher = CDH1-null cells survive relatively better than parental.
The whole screen tested about 18,000 reagents; this is a random part of them. Further read-outs or replicates are left out here. Reagent sequences are not shown. Not given: the amount of reagent, the time to read-out.

ELP1: CDH1-null / parental viability ratio = 0.96
YTHDF2: CDH1-null / parental viability ratio = 0.48
NR1I2: CDH1-null / parental viability ratio = 0.8
CSNK2A2: CDH1-null / parental viability ratio = 0.91
DPP9: CDH1-null / parental viability ratio = 1.29
SLC17A1: CDH1-null / parental viability ratio = 0.93
TBL1Y: CDH1-null / parental viability ratio = 1.17
AKT3: CDH1-null / parental viability ratio = 1.06
H1-10: CDH1-null / parental viability ratio = 0.88
SDHC: CDH1-null / parental viability ratio = 1
ZBTB48: CDH1-null / parental viability ratio = 1.09
PARM1: CDH1-null / parental viability ratio = 1.27
SFT2D2: CDH1-null / parental viability ratio = 0.92
SHD: CDH1-null / parental viability ratio = 1.39
KLC2: CDH1-null / parental viability ratio = 0.71
KLRC3: CDH1-null / parental viability ratio = 1.03
PLK3: CDH1-null / parental viability ratio = 0.84
TWSG1: CDH1-null / parental viability ratio = 1.07
EIF3J: CDH1-null / parental viability ratio = 1.19
RAB40C: CDH1-null / parental viability ratio = 1.1
IGF2BP2-AS1: CDH1-null / parental viability ratio = 1
FBXO9: CDH1-null / parental viability ratio = 0.92
RIPOR1: CDH1-null / parental viability ratio = 0.94
TCP10L: CDH1-null / parental viability ratio = 0.89
BTN2A2: CDH1-null / parental viability ratio = 0.85
ACAT2: CDH1-null / parental viability ratio = 1
BTF3L4: CDH1-null / parental viability ratio = 0.76

Already shown: 4 of the entries above.
DPP9: CDH1-null / parental viability ratio = 1.29
SLC17A1: CDH1-null / parental viability ratio = 0.93
TBL1Y: CDH1-null / parental viability ratio = 1.17
AKT3: CDH1-null / parental viability ratio = 1.06

Continued:
MUS81: CDH1-null / parental viability ratio = 1.05
TMEM244: CDH1-null / parental viability ratio = 0.87
LGALS7B: CDH1-null / parental viability ratio = 1
TOB2: CDH1-null / parental viability ratio = 1.07
CABP1: CDH1-null / parental viability ratio = 0.98
FBXL9P: CDH1-null / parental viability ratio = 1.01
MEP1A: CDH1-null / parental viability ratio = 1.21
TRIM43B: CDH1-null / parental viability ratio = 0.84
EMC8: CDH1-null / parental viability ratio = 0.99
POLR3E: CDH1-null / parental viability ratio = 1.07
GJD2: CDH1-null / parental viability ratio = 0.64
IL1R1: CDH1-null / parental viability ratio = 1.58
PPARGC1A: CDH1-null / parental viability ratio = 0.84
PBX2: CDH1-null / parental viability ratio = 1.24
NCAPH2: CDH1-null / parental viability ratio = 0.79
CASP8AP2: CDH1-null / parental viability ratio = 0.7
KLRG2: CDH1-null / parental viability ratio = 1.43
SLC39A5: CDH1-null / parental viability ratio = 1.09
